Experimental data: publication doi:10.64898/2025.12.10.693398
No constants are given. Whether binding was seen depends on the method and setting. In cells and extracts the contact can be indirect. Some results given as binding are weak or reduced against the parent protein; the word gives no strength.

The chains behind the UniProt entries cited, without tags or fusion partners.
UniProt P62814: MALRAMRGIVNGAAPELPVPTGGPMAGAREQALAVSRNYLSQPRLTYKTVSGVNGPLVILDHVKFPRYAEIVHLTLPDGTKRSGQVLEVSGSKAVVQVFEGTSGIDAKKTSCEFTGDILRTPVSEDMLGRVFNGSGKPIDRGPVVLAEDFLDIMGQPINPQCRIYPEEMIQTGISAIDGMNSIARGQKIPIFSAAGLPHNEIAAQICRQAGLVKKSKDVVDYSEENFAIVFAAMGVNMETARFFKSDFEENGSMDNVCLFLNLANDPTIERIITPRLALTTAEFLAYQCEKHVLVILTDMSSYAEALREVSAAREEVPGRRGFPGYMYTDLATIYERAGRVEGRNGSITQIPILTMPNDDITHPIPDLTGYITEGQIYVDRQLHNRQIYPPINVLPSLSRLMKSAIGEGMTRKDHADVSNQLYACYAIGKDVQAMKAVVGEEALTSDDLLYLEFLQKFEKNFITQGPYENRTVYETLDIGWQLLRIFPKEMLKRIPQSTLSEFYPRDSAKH
UniProt Q9Z1G4: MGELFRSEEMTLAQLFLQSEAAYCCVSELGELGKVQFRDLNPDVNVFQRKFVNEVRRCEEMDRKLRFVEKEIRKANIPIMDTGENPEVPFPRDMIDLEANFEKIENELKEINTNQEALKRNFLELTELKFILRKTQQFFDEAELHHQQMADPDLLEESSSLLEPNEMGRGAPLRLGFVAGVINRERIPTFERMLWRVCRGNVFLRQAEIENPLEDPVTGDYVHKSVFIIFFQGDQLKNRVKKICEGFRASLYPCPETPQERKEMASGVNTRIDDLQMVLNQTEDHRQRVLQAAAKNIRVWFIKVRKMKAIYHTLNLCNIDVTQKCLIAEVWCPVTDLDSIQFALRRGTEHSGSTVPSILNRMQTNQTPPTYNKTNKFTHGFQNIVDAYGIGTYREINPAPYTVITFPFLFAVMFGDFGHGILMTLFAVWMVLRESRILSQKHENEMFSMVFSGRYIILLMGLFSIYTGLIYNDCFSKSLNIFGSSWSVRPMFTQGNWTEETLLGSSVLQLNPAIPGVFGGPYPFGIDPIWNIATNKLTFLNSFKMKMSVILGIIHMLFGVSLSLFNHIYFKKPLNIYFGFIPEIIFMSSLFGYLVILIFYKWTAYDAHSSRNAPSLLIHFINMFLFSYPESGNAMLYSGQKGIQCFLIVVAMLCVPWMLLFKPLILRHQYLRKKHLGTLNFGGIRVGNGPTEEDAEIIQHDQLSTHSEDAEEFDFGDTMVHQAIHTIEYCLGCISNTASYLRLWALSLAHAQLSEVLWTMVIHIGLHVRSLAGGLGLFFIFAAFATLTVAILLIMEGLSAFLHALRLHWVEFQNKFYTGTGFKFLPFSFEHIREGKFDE
UniProt P15920: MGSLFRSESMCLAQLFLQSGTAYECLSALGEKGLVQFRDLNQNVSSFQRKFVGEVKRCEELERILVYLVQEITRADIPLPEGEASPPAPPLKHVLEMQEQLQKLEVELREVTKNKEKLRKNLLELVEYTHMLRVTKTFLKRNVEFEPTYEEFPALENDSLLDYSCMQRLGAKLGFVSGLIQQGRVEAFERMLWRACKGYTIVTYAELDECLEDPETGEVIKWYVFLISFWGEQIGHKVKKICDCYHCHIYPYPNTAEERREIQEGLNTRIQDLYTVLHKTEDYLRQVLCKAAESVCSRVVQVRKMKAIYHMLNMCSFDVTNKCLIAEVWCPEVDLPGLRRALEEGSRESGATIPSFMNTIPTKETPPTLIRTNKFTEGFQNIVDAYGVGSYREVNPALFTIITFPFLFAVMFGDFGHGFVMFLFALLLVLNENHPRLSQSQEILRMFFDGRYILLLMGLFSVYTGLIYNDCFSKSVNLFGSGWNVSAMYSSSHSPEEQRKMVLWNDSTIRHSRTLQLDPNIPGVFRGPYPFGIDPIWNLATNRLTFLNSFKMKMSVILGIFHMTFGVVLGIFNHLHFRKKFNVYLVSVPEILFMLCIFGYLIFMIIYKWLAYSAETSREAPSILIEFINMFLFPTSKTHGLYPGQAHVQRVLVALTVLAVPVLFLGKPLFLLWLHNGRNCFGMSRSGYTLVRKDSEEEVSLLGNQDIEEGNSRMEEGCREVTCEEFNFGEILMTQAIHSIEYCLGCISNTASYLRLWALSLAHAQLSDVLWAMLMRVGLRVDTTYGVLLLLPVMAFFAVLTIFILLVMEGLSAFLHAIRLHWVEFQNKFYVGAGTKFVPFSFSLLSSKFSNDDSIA
UniProt Q920I9: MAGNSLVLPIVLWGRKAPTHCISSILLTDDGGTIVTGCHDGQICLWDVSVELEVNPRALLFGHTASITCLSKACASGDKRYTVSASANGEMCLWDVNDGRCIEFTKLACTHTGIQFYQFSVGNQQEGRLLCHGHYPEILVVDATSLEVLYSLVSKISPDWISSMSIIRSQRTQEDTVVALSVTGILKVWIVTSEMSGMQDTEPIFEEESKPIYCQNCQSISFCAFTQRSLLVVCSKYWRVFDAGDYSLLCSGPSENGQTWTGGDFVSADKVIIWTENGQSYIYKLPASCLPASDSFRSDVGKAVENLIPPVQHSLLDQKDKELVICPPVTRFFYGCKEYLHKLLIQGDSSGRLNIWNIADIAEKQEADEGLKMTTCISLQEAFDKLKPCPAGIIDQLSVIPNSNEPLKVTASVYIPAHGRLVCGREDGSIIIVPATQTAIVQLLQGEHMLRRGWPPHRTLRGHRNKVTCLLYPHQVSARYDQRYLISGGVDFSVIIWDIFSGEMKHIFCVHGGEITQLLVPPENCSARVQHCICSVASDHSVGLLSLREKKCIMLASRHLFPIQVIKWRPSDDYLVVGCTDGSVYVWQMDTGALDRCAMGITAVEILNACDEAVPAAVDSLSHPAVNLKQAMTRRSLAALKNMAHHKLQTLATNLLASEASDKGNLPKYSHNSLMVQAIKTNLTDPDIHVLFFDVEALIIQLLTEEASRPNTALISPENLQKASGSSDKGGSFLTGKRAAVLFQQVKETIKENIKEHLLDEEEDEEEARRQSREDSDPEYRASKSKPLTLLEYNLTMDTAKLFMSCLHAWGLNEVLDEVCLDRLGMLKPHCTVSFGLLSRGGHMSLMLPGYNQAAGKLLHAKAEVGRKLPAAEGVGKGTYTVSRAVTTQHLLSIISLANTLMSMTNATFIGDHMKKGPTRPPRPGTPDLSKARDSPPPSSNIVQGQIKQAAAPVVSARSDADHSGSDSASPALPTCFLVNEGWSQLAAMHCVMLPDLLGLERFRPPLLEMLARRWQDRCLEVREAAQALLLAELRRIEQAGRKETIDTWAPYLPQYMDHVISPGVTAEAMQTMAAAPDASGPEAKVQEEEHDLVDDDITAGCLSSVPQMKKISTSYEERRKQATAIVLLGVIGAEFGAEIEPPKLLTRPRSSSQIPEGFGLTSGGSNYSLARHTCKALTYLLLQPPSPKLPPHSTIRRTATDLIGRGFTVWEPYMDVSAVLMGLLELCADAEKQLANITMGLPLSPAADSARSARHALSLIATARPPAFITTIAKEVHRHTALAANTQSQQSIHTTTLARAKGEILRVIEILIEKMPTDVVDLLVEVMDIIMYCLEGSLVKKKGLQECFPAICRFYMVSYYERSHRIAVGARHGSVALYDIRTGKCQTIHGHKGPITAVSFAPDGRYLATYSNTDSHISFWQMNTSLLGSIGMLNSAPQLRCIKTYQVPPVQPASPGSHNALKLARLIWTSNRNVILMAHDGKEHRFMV

What follows are substances tested against HA-V1b2 (mouse) (UniProt P62814) (assay: co-IP).

binding, binds:
Flag-Voa1 (from UniProt Q9Z1G4 1-839)
Flag-Voa2 (from UniProt P15920 1-856)
V5-Wdr7 (from UniProt Q920I9 1-1489)
